Earlier results on 1 molecule are cited in US7517540B2, “Cranberry seed oil extract and compositions containing components thereof” (priority 1999, dated 2009).

Take `CC/C(=C(\c1ccccc1)c1ccc(OCCN(C)C)cc1)c1ccccc1` [Tamoxifen]: in the data set on MDA-MB-435 (MDA-MB-435 (estrogen receptor-negative), combinations with tamoxifen 1:1), the “IC50, inhibition of proliferation of MDA-MB-435” value was 90 ± 4 µg/mL. Besides, the “Inhibition of proliferation, MDA-MB-435 (Table 5)” value with MDA-MB-435 (MDA-MB-435, alone, 1:1 or 1:1:1 combinations) is on record as 90. Also, the “IC50, inhibition of proliferation of MCF-7” value in the data set with MCF-7 (MCF-7 (estrogen receptor-positive), combinations with tamoxifen 1:1) was 0.04 ± 0.001 µg/mL. For the same molecule, in the data set on MCF-7 (MCF-7, alone, 1:1 or 1:1:1 combinations), the “Inhibition of proliferation, MCF-7 (Table 5)” value was 0.04.
